The target of this assay is T1, Forkhead box A2 (FoxA2) (rat (endogenous in SD rat neural stem cells)) (UniProt P32182).
T1 sequence: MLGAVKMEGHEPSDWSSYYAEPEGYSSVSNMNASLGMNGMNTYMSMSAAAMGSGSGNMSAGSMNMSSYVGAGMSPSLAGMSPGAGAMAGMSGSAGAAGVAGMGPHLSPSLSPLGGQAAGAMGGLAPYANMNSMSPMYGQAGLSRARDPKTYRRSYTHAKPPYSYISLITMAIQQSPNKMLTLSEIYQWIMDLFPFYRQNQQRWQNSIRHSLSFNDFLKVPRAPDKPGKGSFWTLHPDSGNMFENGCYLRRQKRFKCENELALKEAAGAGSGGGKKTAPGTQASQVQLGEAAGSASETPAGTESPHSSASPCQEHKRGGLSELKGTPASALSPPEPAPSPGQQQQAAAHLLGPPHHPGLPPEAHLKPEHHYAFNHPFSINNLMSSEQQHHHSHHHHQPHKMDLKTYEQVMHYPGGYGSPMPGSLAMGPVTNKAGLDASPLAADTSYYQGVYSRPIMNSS
The experiment in a line: co-IP; Pierce Crosslink Magnetic IP/Co-IP Kit; mouse anti-FoxA2 antibody (5 μg per sample) crosslinked to protein A/G magnetic beads; cell protein of NSCs differentiated 5 days, control or PTE (30 μg/ml); TET1 detected by western blot.

These are yes or no findings as the source states them, for the method shown. In cells and extracts the contact can be indirect. Binding can be weak; no strength is given.

Results on 1 substance are retold here after article PMC7189310.

For Ten-eleven translocation 1 (TET1), the binding entry is “binds”.
